Experimental data reported in PubChem BioAssay AID651768 (National Center for Advancing Translational Sciences (NCATS), 2012).
About 1,700 (0.47%) of roughly 360,000 compounds were called active. The inconclusive results got no clear call from the source; some entries with a clear call stand among them for comparison. Calls come from the whole dose curve; as a rule, active = well fitted inhibition curve with a large enough effect; inconclusive = small, poorly fitted or top-dose-only effect; inactive = no such curve, though single readings can be large or run the other way. A potency beside an inconclusive call is a rough fit, not a confirmed value.

The chains behind the UniProt entries cited, without tags or fusion partners.
UniProt Q14191, whole entry, looked up: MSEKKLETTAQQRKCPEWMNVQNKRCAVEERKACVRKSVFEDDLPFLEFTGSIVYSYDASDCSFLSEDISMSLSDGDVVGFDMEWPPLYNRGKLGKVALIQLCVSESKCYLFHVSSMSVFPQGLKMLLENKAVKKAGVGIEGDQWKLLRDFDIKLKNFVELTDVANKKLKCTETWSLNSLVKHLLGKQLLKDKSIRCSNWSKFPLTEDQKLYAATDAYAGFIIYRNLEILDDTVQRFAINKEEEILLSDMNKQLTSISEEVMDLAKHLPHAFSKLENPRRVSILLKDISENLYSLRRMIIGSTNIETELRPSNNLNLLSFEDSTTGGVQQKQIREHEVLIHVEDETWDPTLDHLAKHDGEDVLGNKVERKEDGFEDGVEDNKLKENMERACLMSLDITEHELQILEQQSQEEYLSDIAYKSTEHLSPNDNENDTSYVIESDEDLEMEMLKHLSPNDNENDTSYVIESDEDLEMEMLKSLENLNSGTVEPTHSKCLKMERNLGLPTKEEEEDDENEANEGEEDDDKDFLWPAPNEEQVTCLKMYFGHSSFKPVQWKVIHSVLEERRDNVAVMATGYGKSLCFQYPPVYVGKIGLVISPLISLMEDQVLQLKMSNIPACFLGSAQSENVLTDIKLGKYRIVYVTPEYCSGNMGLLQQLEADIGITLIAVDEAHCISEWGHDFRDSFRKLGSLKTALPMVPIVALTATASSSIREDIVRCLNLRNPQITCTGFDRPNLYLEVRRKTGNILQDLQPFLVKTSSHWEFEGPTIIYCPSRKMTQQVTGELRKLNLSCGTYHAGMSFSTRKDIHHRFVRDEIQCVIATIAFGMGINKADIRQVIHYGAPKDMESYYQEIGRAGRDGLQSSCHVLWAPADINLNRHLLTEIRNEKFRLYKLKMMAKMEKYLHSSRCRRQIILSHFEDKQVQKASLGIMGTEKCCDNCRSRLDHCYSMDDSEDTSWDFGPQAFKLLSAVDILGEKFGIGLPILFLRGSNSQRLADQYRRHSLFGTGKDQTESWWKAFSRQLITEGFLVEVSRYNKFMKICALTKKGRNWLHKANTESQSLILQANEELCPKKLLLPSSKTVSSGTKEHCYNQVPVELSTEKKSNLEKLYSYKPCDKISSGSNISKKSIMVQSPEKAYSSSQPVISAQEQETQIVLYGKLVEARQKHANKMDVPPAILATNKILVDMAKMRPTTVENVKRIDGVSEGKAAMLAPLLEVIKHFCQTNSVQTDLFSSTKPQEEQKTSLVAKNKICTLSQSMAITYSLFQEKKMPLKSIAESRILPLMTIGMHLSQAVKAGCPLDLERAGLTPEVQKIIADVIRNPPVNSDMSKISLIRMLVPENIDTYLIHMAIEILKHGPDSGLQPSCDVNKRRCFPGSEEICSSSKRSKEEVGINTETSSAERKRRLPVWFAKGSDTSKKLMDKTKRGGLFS

What follows are compounds tested against Bifunctional 3'-5' exonuclease/ATP-dependent helicase WRN (Homo sapiens) (UniProt Q14191) (assay: qHTS for Inhibitors of WRN Helicase). Details: WRN helicase unwinding, fluorescent forked duplex, kinetic; activity change, negative = inhibition: at 114 µM (top of the series) unless noted.
Summary of the method: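 Fluorescence dequenching readout, ex 525 nm/em 598 nm, kinetic mode: forked duplex DNA (100 nM final) with adjacent fluorophore and quencher unwound by WRN (20 nM final) with 2 mM ATP. Compound preincubation 15 min, room temperature.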
% is set by controls: 0 for no effect and ±100 for the full control effect; potency is the fitted concentration of half-maximal effect.
Note: nearly all actives have a fitted effect of over 55% in size.

Question: `CC(=O)N1CC(C)Sc2ccc(S(=O)(=O)NCc3ccc(F)cc3)cc21` (stereo not drawn) was tested. Which “activity change, negative = inhibition” value did it give?
Answer: inactive: -0.0325%

Question: `Cc1ccc(S(=O)(=O)Oc2ccc(/C=C3\N=C(c4cccc(C)c4)OC3=O)cc2)cc1` was tested. Which “activity change, negative = inhibition” value did it give?
Answer: inactive: -10.7%

Question: Which Potency does the source give for `COc1ccc(S(=O)(=O)Nc2ccc(-c3ccc(N4CCCC4)nn3)cc2)cc1C` here?
Answer: inconclusive: 89.1 µM [inhibitor, single point]

Question: For `Cc1nc2ccccn2c1C(=O)N/N=C/c1ccccc1Cl`, which “activity change, negative = inhibition” value is on record?
Answer: inactive: -3%

Question: How did the “activity change, negative = inhibition” value turn out when `CCOC(=O)C1CCCC12Nc1cccc3cccc(c13)N2` (stereo not drawn) was run?
Answer: inactive: 3.18%

Question: How did the Potency turn out when `NC(=O)c1c(NC(=O)C2CCCO2)sc2c1CCCC2` (stereo not drawn) was run?
Answer: inconclusive: 56.2 µM [inhibitor, partial curve]

Question: Which Potency does the source give for `CCOC(=O)/C(=C/c1ccc(N2CCC(c3ccccc3)=N2)cc1)C(C)=O` here?
Answer: inconclusive: 21.2 µM [inhibitor, single point]

Question: With `CN1C=C/C(=C\c2cc[n+](C)c3ccccc23)c2ccccc21` as the compound, how does the Potency read?
Answer: active: 39.8 µM

Question: How did the “activity change, negative = inhibition” value turn out when `CCCc1ccc(S(=O)(=O)N2CCN(C(=O)CN3C(=O)NC(C)(C4CC4)C3=O)CC2)cc1` (stereo not drawn) was run?
Answer: inactive: 0.758%

Question: Which Potency does the source give for `Cc1ccc(/C=C2/NC(=O)N(Cc3ccc(Br)cc3)C2=O)o1` here?
Answer: inconclusive: 25.1 µM [inhibitor, partial curve]

Question: Which Potency does the source give for `Cc1cc(NS(=O)(=O)c2ccc(NC(=O)COc3ccccc3[N+](=O)[O-])cc2)no1` here?
Answer: inconclusive: 79.4 µM [inhibitor, partial curve]

Question: For `O=C(Nc1ccc(S(=O)(=O)Nc2ncccn2)cc1)c1cncc(Br)c1`, which Potency is on record?
Answer: inconclusive: 39.8 µM [inhibitor, single point]

Question: For `CCCCN(C(=O)c1ccc(N(C)S(=O)(=O)c2ccc(C)cc2)cc1)c1c(N)n(CCCC)c(=O)[nH]c1=O`, which “activity change, negative = inhibition” value is on record?
Answer: inactive: -11.7%

Question: For `c1cncc(-c2nc(-c3ccc4c(c3)OCO4)cs2)c1`, which Potency is on record?
Answer: inconclusive: 79.4 µM [inhibitor, single point]

Question: With `O=C(NCc1nnc(SCC(=O)N2CCN(c3ccccc3)CC2)o1)c1ccc(F)cc1` as the compound, how does the Potency read?
Answer: inconclusive: 89.1 µM [inhibitor, single point]

Question: Which Potency does the source give for `CC(Oc1ccc(Br)cc1)C(=O)NCCCN1CCCC1=O` (stereo not drawn) here?
Answer: inconclusive: 17.8 µM [inhibitor, full curve, poor fit]

Question: For `CCOc1cc(CNc2ccc(O)cc2)ccc1OCc1ccc(Cl)cc1Cl`, which Potency is on record?
Answer: inconclusive: 50.1 µM [inhibitor, partial curve]

Question: `O=C(O)c1ccc(COCC(F)(F)C(F)F)o1` was tested. Which “activity change, negative = inhibition” value did it give?
Answer: inactive: -12.5% [at 57.1 µM]

Question: With `CN(C)c1ccc(C=C2SC(=S)NC2=O)cc1` as the compound, how does the Potency read?
Answer: inconclusive: 79.4 µM [inhibitor, partial curve]

Question: How did the Potency turn out when `CC(=O)Nc1cc(-c2cccc(C(=O)NCCN(C)C)c2)cn2c(-c3cccc(C(F)(F)F)c3)cnc12` was run?
Answer: active: 79.4 µM

Question: For `COc1cccc(Nc2nnc(SCc3cc([N+](=O)[O-])cc4c3OCOC4)s2)c1`, which activity change, negative = inhibition is on record?
Answer: inconclusive: -36.4% [inhibitor] [at 57.1 µM]

Question: `CC1CCN(C(=S)c2ccc(-c3ccc(Cl)cc3Cl)o2)CC1` was tested. Which Potency did it give?
Answer: inconclusive: 14.1 µM [inhibitor, single point]

Question: With `C=C(C)C(=O)Nc1cccc(C2=NOC3(C2)C[C@@H](C(N)=O)N(C(=O)CCCCC)C3)c1` (stereo partly drawn) as the compound, how does the Potency read?
Answer: active: 39.8 µM

Question: Which Potency does the source give for `CC(=O)Nc1ccc(S(=O)(=O)Oc2cccc(/C=C3\SC(N)=NC3=O)c2)cc1` here?
Answer: active: 79.4 µM

Question: For `O=C(CCCN1C(=O)/C(=C/c2cccc(Br)c2)SC1=S)NCCCN1CCOCC1`, which “activity change, negative = inhibition” value is on record?
Answer: inactive: -3.39%

Question: `Cc1nnc(NC(=O)CSc2ccc(-c3ccco3)nn2)s1` was tested. Which Potency did it give?
Answer: inconclusive: 56.2 µM [inhibitor, partial curve]

Question: For `O=C(Nn1c(SCc2ccc(F)cc2)nc2ccsc2c1=O)c1ccccc1`, which Potency is on record?
Answer: inconclusive: 100 µM [inhibitor, partial curve]

Question: With `O=C(O)c1cccc(N2C(=O)/C(=C/c3ccc(SCc4ccc(Cl)cc4)o3)SC2=S)c1` as the compound, how does the Potency read?
Answer: active: 17.8 µM

Question: For `CCOC(=O)N1CCN(C(c2cccnc2)c2ccc3cccnc3c2O)CC1` (stereo not drawn), which Potency is on record?
Answer: inconclusive: 89.1 µM [inhibitor, partial curve]

Question: How did the Potency turn out when `CN(CC(=O)Nc1ccccc1Br)C(=O)c1cccnc1Nc1cccc(C(F)(F)F)c1` was run?
Answer: inconclusive: 70.8 µM [inhibitor, single point]

Question: How did the Potency turn out when `CCOC(=O)c1cnc(COc2ccc(OC)cc2)[nH]c1=O` was run?
Answer: inconclusive: 39.8 µM [inhibitor, single point]

Question: With `COc1ccc2[nH]c(=O)c(CN(Cc3nnnn3Cc3ccco3)C3CCCCC3)cc2c1` as the compound, how does the Potency read?
Answer: inconclusive: 50.1 µM [inhibitor, partial curve]

Question: Which Potency does the source give for `COc1ccc(-c2csc(NC(=O)c3cc(C)on3)c2C#N)cc1OC` here?
Answer: inconclusive: 56.2 µM [inhibitor, partial curve]

Question: For `NS(=O)(=O)c1ccc2nc(NC(=O)c3ccc4ncsc4c3)sc2c1`, which Potency is on record?
Answer: inconclusive: 63.1 µM [inhibitor, single point]

Question: Which Potency does the source give for `CCOc1ccc(C(=O)NCC(=O)N2CCCC2)cc1` here?
Answer: inconclusive: 100 µM [inhibitor, single point]

Question: For `O=C(NCc1ccco1)C1CCCCN1S(=O)(=O)c1ccc(F)cc1` (stereo not drawn), which “activity change, negative = inhibition” value is on record?
Answer: inactive: -5.11%

Question: `N=c1oc2ccc(Br)cc2cc1C(=O)NCc1ccccc1` was tested. Which Potency did it give?
Answer: inconclusive: 56.2 µM [inhibitor, partial curve]

Question: Which Potency does the source give for `COc1ccccc1NS(=O)(=O)c1cc(NC(=O)Cc2n[nH]c(=O)c3ccccc23)ccc1Cl` here?
Answer: inconclusive: 25.1 µM [inhibitor, full curve, poor fit]

Question: With `COC(=O)c1c(NC(=O)c2cccc([N+](=O)[O-])c2)sc(C(N)=O)c1C` as the compound, how does the Potency read?
Answer: inconclusive: 22.4 µM [inhibitor, single point]

Question: For `O=C(Nc1ccc(S(=O)(=O)Nc2nccs2)cc1)c1cc(-c2ccccc2Cl)nc2ccccc12`, which Potency is on record?
Answer: inconclusive: 50.1 µM [inhibitor, partial curve]

Question: Which Potency does the source give for `O=C(Cn1nc(-c2ccccc2)c2ccccc2c1=O)Nc1ccc(F)cc1` here?
Answer: inconclusive: 5.62 µM [inhibitor, full curve, poor fit]

Question: How did the “activity change, negative = inhibition” value turn out when `O=C(COC(=O)c1ccc(Br)o1)NCCc1ccccc1` was run?
Answer: inactive: 7.59%

Question: `COc1cc(-c2cc(C(=O)Nc3cc(S(=O)(=O)N4CCOCC4)ccc3O)c3ccccc3n2)cc(OC)c1OC` was tested. Which Potency did it give?
Answer: inconclusive: 39.8 µM [inhibitor, full curve, poor fit]

Question: How did the Potency turn out when `COc1cc(/C=C2\SC(N)=NC2=O)cc(OC)c1` was run?
Answer: inconclusive: 79.4 µM [inhibitor, partial curve]

Question: How did the “activity change, negative = inhibition” value turn out when `Cc1cc(C)n2cnnc2n1` was run?
Answer: inactive: 0.943%

Question: For `COc1ccc(C2C3=C(CC(C)(C)CC3=O)Nc3c2c(=O)n(C)c(=O)n3C)cc1OC` (stereo not drawn), which “activity change, negative = inhibition” value is on record?
Answer: inactive: -4.53%

Question: Which Potency does the source give for `FC(F)(F)c1nc(SCc2ccc(Cl)cc2Cl)n[nH]1` here?
Answer: inconclusive: 11.2 µM [inhibitor, full curve]

Question: For `Cc1ncc(S(=O)(=O)c2ccc(Cl)cc2)c(N)n1`, which Potency is on record?
Answer: inconclusive: 39.8 µM [inhibitor, single point]

Question: `N#C/C(=C\c1cccc([N+](=O)[O-])c1)C(=O)NCc1ccc(Cl)cc1` was tested. Which Potency did it give?
Answer: inconclusive: 79.4 µM [inhibitor, single point]

Question: Which Potency does the source give for `O=C1CSC(=S)N1N=Cc1ccc(Cl)cc1Cl` here?
Answer: inconclusive: 17.8 µM [inhibitor, partial curve]

Question: How did the Potency turn out when `CCCCC[C@H](O)/C=C/C1=C(CCCCCCC(=O)O)C(=O)CC1` was run?
Answer: inconclusive: 44.7 µM [inhibitor, partial curve]

Question: `COc1cc(OC)c2c(O)c3c(c(-c4c5c(c(O)c6c(OC)cc(OC)cc46)CO[C@@H](C)[C@H]5O)c2c1)[C@H](O)[C@H](C)OC3` was tested. Which Potency did it give?
Answer: active: 50.1 µM

Question: With `COc1ccc(-c2noc(CNC(=O)Nc3ccc(F)cc3)n2)cc1` as the compound, how does the Potency read?
Answer: inconclusive: 39.8 µM [inhibitor, single point]

Question: For `O=C(COC(=O)C1CC(=O)N(Cc2ccco2)C1)c1ccc(OC(=O)c2ccco2)cc1` (stereo not drawn), which Potency is on record?
Answer: active: 35.5 µM

Question: With `COc1ccc2c(c1)c1nc3ccccc3nc1n2CC(=O)OC(C)C` as the compound, how does the Potency read?
Answer: inconclusive: 89.1 µM [inhibitor, single point]

Question: Which Potency does the source give for `CCC(=O)NC(c1ccc(C)cc1)c1cc([N+](=O)[O-])c2cccnc2c1O` (stereo not drawn) here?
Answer: inconclusive: 63.1 µM [inhibitor, partial curve, poor fit]

Question: `Cc1ccc(C2C(C#N)=C(N)SC(N)=C2C#N)cc1` was tested. Which “activity change, negative = inhibition” value did it give?
Answer: inactive: -29.1%

Question: How did the “activity change, negative = inhibition” value turn out when `Cc1cc(C)c(O)c(-c2cc(C(=O)Nc3cccnc3)[nH]n2)c1` was run?
Answer: inactive: -24.3%

Question: How did the Potency turn out when `CCc1ccc(-c2cnc3nc[nH]c(=O)c3n2)cc1` was run?
Answer: inconclusive: 10 µM [inhibitor, full curve, poor fit]

Question: With `Cc1ccc(/C=C/C(=O)N2CCN(S(=O)(=O)c3ccc(C)c(C)c3)CC2)o1` as the compound, how does the Potency read?
Answer: inconclusive: 89.1 µM [inhibitor, partial curve]

Question: For `Cc1ccc(C)c(C(=O)COC(=O)c2cccc(N3C(=O)c4c(C)nc5ccccc5c4C3=O)c2)c1`, which Potency is on record?
Answer: inconclusive: 12.6 µM [inhibitor, partial curve]

Question: How did the Potency turn out when `O=C(O)CC/C(=C\c1ccc(N2CCCC2)c([N+](=O)[O-])c1)c1nc2ccccc2s1` was run?
Answer: inconclusive: 39.8 µM [inhibitor, partial curve]

Question: Which Potency does the source give for `CC1CCC(C(C)C)C(OC(=O)C[n+]2cccc(C(N)=O)c2)C1` (stereo not drawn) here?
Answer: inconclusive: 89.1 µM [inhibitor, single point]

Question: How did the “activity change, negative = inhibition” value turn out when `O=C(NCCCn1ccnc1)c1sc2cc([N+](=O)[O-])ccc2c1Cl` was run?
Answer: inactive: -9.19%

Question: Which “activity change, negative = inhibition” value does the source give for `Cc1ccc(NC(=O)c2ccco2)c(NC(=O)C2CCCO2)c1` (stereo not drawn) here?
Answer: inactive: 1.96%

Question: For `S=C(NCCCN1CCN(CCCNC(=S)NC2CCCCC2)CC1)NC1CCCCC1`, which “activity change, negative = inhibition” value is on record?
Answer: inactive: 13.7%

Question: Which Potency does the source give for `Cc1ccc(S(=O)(=O)N(C(=O)c2ccco2)c2cc3sc(=O)oc3c3ccccc23)cc1` here?
Answer: active: 56.2 µM

Question: How did the Potency turn out when `Cc1ccc(C(=O)N/C(=C/c2ccco2)C(=O)NCc2ccco2)cc1` was run?
Answer: inconclusive: 79.4 µM [inhibitor, partial curve]
